Results taken from PubChem BioAssay AID1273 (Columbia University Molecular Screening Center, 2008).
The list shows a part of the results. The main result of the screen is listed elsewhere. These columns were measured beside it and carry no call. Compounds called inactive in the main read-out are mostly missing here.

Experiment: insulin gene promoter suppression in islet cells – imaging, TRM-6 cells (human fetal islet line), eGFP reporter, cell count, primary screen (AID 1273;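 further: cells exposed to compound for 48 h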)
Conditions: measured here: cell count, toxicity, at 2 µM, reporter expression induced with tamoxifen

SMILES | normalized cell count
C=CCN1CN(S(=O)(=O)c2cccs2)c2nc3ccccc3nc21 | 103%
COc1ccc(CNC(=O)C2CCN(S(=O)(=O)N3CCOCC3)CC2)cc1 | 57%
COc1ccc(S(=O)(=O)Nc2ccc(C)cc2)cc1OC | 108%
Cn1nc(C(=O)NCc2ccco2)c2ccccc2c1=O | 87.7%
C=CCNc1nc(S(=O)Cc2ccc(C)cc2)nc2c1CCCC2 (stereo not drawn) | 72.6%
CC(=O)c1c(OC(=O)c2ccc(C)cc2)c2ccccc2n1C | 0%
CC1Cc2ccccc2N1C(=O)C12CCC(C)(C(=O)C1)C2(C)C (stereo not drawn) | 105%
CC(=O)c1cnc(-c2ccccc2Cl)s1 | 93.3%
CCOc1ccc(OCCN2CCCCC2)cc1 | 85.9%
COCCNC(=O)/C=C/c1c(Cl)cccc1Cl | 92.1%
COc1ccc(-c2[nH]ncc2C=O)cc1 | 131%
Cc1ccc(C2=Nc3ccccc3N=C(C(Cl)Cl)C2)cc1 | 139%
COC(=O)C1CCN(C(=O)C23CCC(C)(C(=O)O2)C3(C)C)CC1 (stereo not drawn) | 49.9%
CC(C)Cc1cc(C(=O)NCc2cccs2)no1 | 65.6%
COc1ccc(C(=O)N/N=C/c2cn[nH]c2-c2ccc(OC)cc2OC)cc1 | 136%
O=C(Nc1ccc2c(c1)OCO2)OCc1ccccc1 | 0.54%
CCN(c1ccccc1)S(=O)(=O)c1ccc(C(=O)Nc2nnc(C3CC3)o2)cc1 | 99.2%
CN(C)c1ccc(NC(=O)COC(=O)c2cc(=O)c3ccccc3o2)cc1 | 62.8%
CCCCn1cnc2c([nH]c3ccccc32)c1=O | 150%
COc1ccc(-c2nc3ccccc3s2)cc1O | 48.3%
COc1ccc(S(=O)(=O)NCCc2ccc(F)cc2)cc1 | 104%
CCCCn1c(=O)c(CCC(=O)OCC(=O)NCc2ccc(OC)c(OC)c2)nc2ccccc21 | 76%
CCOc1ccc(CN(C(=O)c2oc3cc(C)ccc3c2C)C2CCS(=O)(=O)C2)cc1 (stereo not drawn) | 45.1%
Cn1nccc1CNC(=O)c1c(Cl)cnn1C | 123%

Part of the list above in order of length of the SMILES, largest number first:
SMILES | normalized cell count
CCN(c1ccccc1)S(=O)(=O)c1ccc(C(=O)Nc2nnc(C3CC3)o2)cc1 | 99.2%
C=CCN1CN(S(=O)(=O)c2cccs2)c2nc3ccccc3nc21 | 103%
O=C(Nc1ccc2c(c1)OCO2)OCc1ccccc1 | 0.54%
COc1ccc(-c2[nH]ncc2C=O)cc1 | 131%
CCOc1ccc(OCCN2CCCCC2)cc1 | 85.9%

Going on with the list.

SMILES | normalized cell count
O=C1Nc2cc3c(cc2Sc2ccccc21)OCCO3 | 75.9%
Cc1nn(-c2ccccc2)c(C)c1N | 62%
COC(=O)Nc1ccc(S(=O)(=O)Nc2ccc(O)cc2)cc1 | 54.7%
CC(C)c1ccccc1NC(=O)Cn1c(-c2ccccc2Cl)nc2ccccc21 | 87.2%
C#CCNC(=O)/C=C/c1ccc(C)cc1 | 91.7%
C=CCNc1ncnc2c1[nH]c1ccc(C)cc12 | 146%
O=C(CSc1nnc(-c2ccco2)n1-c1ccccc1)NCc1ccco1 | 41.2%
CCOc1ccnc(OCC)c1Br | 58%
N#C/C(=C\c1ccc(-c2ccc(S(=O)(=O)N3CCOCC3)cc2)o1)C(=O)NC1CC1 | 108%
CCOC(=O)c1sc2nc(C)nc(NCCc3ccccn3)c2c1C | 80.8%
Cc1cccc(-n2ncc3c(Nc4c(C)n(C)n(-c5ccccc5)c4=O)ncnc32)c1 | 31.9%
CCc1nnc(NC(=O)CSc2nnc(Cc3ccccc3)n2-c2ccccc2)s1 | 89.9%
Cc1cc(C(=O)CCl)c(C)n1CCc1ccc(F)cc1 | 6.79%
CCOC(=O)N1CCN(C(=O)CSCC(=O)Nc2nc(-c3ccc(OC)cc3)cs2)CC1 | 122%
N#C/C(=C\c1cccs1)c1nc2ccccc2[nH]1 | 151%
CC12CC(c3ccccc3O1)C(C(=O)N1CCOCC1)C(=O)N2 (stereo not drawn) | 114%
CCCn1c(SCC(=O)Nc2nc(C)cs2)nnc1-c1cccnc1 | 139%
O=C(NCc1cccnc1)c1ccc(NC(=O)c2ccco2)cc1 | 55.7%
CC1(C)Cc2c(sc3c2C2=NCCN2C=N3)CS1 | 195%
CCN(CC)CCNC(CC(=O)Nc1ccc(Cl)cc1Cl)C(=O)O (stereo not drawn) | 90.4%
c1ccc2[nH]c(-c3cscn3)nc2c1 | 152%
S=C(Nc1ccccc1)N1CCN(c2ccc(N3CCOCC3)nn2)CC1 | 123%
Cc1nc2c(-c3ccccc3)c(C)nn2c(C)c1CCC(=O)N1CCOCC1 | 80.3%
COc1ccc(Br)c2oc(S)cc(=O)c12 | 102%

SMILES | normalized cell count
O=C(NCc1cccc(Cl)c1)c1cnccn1 | 75.1%
COc1ccc(-c2nc3ncccn3c2Nc2ccc3c(c2)OCCO3)cc1 | 55.3%
CCN1CCN(c2cc(=O)n(Cc3ccc(F)cc3)c(=O)[nH]2)CC1 | 72.9%
COC(=O)CCc1c(C)[nH]c(C(=O)OCc2ccccc2)c1C | 102%
CCN(CC)c1cc2nc(C)n(Cc3ccccc3)c(=O)c2cc1NC(=O)C1CC1 | 139%
Clc1ccc2c(N/N=C/c3cccnc3)ccnc2c1 | 140%
Cc1c(N2C(=O)c3cccc4cccc(c34)C2=O)c(=O)n(-c2ccccc2)n1C | 40%
O=C(c1ccc(F)cc1)N1CCCCC(Sc2nnc3ccccn23)C1=O (stereo not drawn) | 108%
O=C1NC(=O)/C(=C\c2ccsc2)N1 | 64.2%
Brc1ccc2ncnc(NCc3ccccc3)c2c1 | 104%
Cc1ccccc1C(=O)N1CCN(c2ccccn2)CC1 | 123%
CCOC(=O)c1sc2nc3c(cc2c1N)COC(C)(C)C3 | 107%
O=C(Nc1ccc(Cl)cc1)Nc1ccc(N2CCOCC2)cc1 | 155%
CCC(=O)Nc1nonc1-c1nc2ccccc2n1Cc1ccccc1 | 103%
CCS(=O)(=O)n1nc(-c2ccc(Cl)cc2)nc1SC | 222%
CCc1c(O)cc2n(c1=O)-c1ccccc1C2(C)C | 81.6%
O=C(c1ccccc1)c1ccccc1C(=O)N1CCCC1 | 134%
CCc1cc2c(NCC3CCCO3)ncnc2s1 (stereo not drawn) | 108%
CCSCc1nc2ccccn2c1Br | 134%
c1ccc(C(Cc2nc(-c3ccncc3)no2)c2ccccc2)cc1 | 135%
Cc1[nH]n2c(=O)c3c(nc2c1-c1ccccc1)CCC3 | 119%
CCCCCC(=O)N/N=C(\C)c1ccc(Cl)cc1 | 0.42%
COc1cccc(Nc2c3c(nc4c(-c5ccccc5)c(C)nn24)CCC3)c1 | 138%
Cn1c(=O)cc(SCC(=O)N2CCN(c3ccccc3)CC2)c2ccccc21 | 105%

SMILES | normalized cell count
COc1ccc(C(=O)N(Cc2ccc(N(C)C)cc2)C2CCS(=O)(=O)C2)cc1 (stereo not drawn) | 69.7%
NC(=O)[C@@H]1CCCCNc2c(I)cc([N+](=O)[O-])cc2C(=O)N[C@@H](CCC(=O)O)C(=O)N[C@@H](CO)C(=O)N1 | 119%
CCOc1ccc(-c2nc(C#N)c(N3CCN(CC)CC3)o2)cc1 | 156%
CC(C)(CCl)C(=O)Nc1ccc(C(F)(F)F)cc1 | 126%
CCCCCOC(=O)Nc1nnc(CCCCC)s1 | 81%
c1ccc(N2CCN(c3nc4ccccc4[nH]3)CC2)nc1 | 97.9%
COC(=O)c1cc(OC)c(OC)cc1NC(=O)CSc1nnnn1Cc1ccccc1 | 171%
CCN(CC)S(=O)(=O)c1cccc(-c2nnc(SCc3nc4ccccc4s3)o2)c1 | 95.4%
c1ccc2[nH]c(NC3=NCCC3)nc2c1 | 111%
Cc1ccc(/C=N/NC(=O)C2=NNC(c3ccccc3)(c3ccccc3)C2)c(O)c1 | 75.6%
O=C(CCc1nnc(Cc2ccc3c(c2)OCO3)o1)NCc1nc2ccccc2s1 | 51.1%
Cc1ccc(-n2[nH]c(C)c(/C=N/NC(=O)c3cccc([N+](=O)[O-])c3)c2=O)cc1C | 166%
Cc1ccccc1C(=O)NC1CCN(C(=O)N2CCOCC2)CC1 | 142%
CC1CN(c2nc(-c3ccccc3)nc3ccccc23)CC(C)O1 (stereo not drawn) | 44.1%
Cc1nnc(OC(C)C)c2nn(-c3ccccc3F)c(C)c12 | 157%
CC(C)(C)c1ccc(C(=O)Nc2cccc([N+](=O)[O-])c2)cc1 | 139%
Cc1noc(C)c1C(=O)NC(C)C1CCCO1 (stereo not drawn) | 36.8%
Cn1c(C(=O)c2ccccc2[N+](=O)[O-])nc2ccccc21 | 14.2%
Cc1nnc(SCC(=O)c2ccc(Br)cc2)s1 | 142%
N#CCSc1ccc(-c2nc3ccccc3[nH]2)cn1 | 88.2%
COC(=O)Cn1c(CN2CCC(Cc3ccccc3)CC2)nc2c1c(=O)n(C)c(=O)n2C | 67.3%
O=C(NC1CCCCCC1)c1cccc(COCC(F)(F)F)c1 | 139%
CCCCSc1nnc(-c2ccc(C)cc2)c2ccccc12 | 131%
CCOC(=O)N1CCN(C(=O)c2ccc(OC)c(S(=O)(=O)N3CCOCC3)c2)CC1 | 142%

SMILES | normalized cell count
Cc1cccc(N/N=C(\C#N)S(=O)(=O)C(C)(C)C)c1 | 83.5%
Cc1ccc(N2CCN(S(=O)(=O)N3CCCCC3)CC2)cc1Cl | 86.3%
CCCc1nc2ccccc2n1CC(O)COc1ccc(NC(C)=O)cc1 (stereo not drawn) | 97.5%
O=C1Nc2ccccc2N(O)N1c1cc(-c2ccccc2)[nH]n1 | 92.3%
Cn1cccc1/C=N/NC(=O)c1ccn[nH]1 | 118%
Cc1occc1C(=O)Nc1nn[nH]n1 | 16.9%
COc1ccc([N+](=O)[O-])cc1NC(=O)COC(C)=O | 64%
CSc1cccc(NC(=O)COc2cccc3ccccc23)c1 | 48.3%
COc1cccc(CCC(=O)O)c1OC | 35.1%
CCN1CCN(c2cc(C)c3cc(NC(=O)Cc4ccc(OC)c(OC)c4)ccc3n2)CC1 | 159%
Nc1nc(CN2CCCCCC2)nc(Nc2ccccc2)n1 | 40%
N#CCCN(C(=O)COC(=O)c1cccc(S(=O)(=O)Nc2ccc([N+](=O)[O-])cc2)c1)c1ccccc1 | 103%
CCc1ccc2c(c1)c(N=NC1=NC(=O)CS1)c(O)n2C | 60.5%
CCCN(Cc1cc2cc(C)ccc2[nH]c1=O)S(C)(=O)=O | 88.8%
Cc1c(Cl)cccc1-n1c(SCC(=O)NCc2cccs2)nnc1-c1ccncc1 | 39%
COc1ccc(NC(=O)c2ccco2)cc1NC(=O)c1ccc(Br)o1 | 94.7%
CCOc1nc(NC(=O)NS(=O)(=O)Oc2cccc(Cl)c2)nc(-c2ccccc2)n1 | 59.2%
CCOC(=O)Nc1ccc2nc3n(c(=O)c2c1)CCCCC3 | 80.6%
Cc1ccc(O)c(-c2cc(-c3ccccc3C)[nH]n2)c1 | 118%
COc1ccc(NC(=O)c2nc3nc(C)cc(C(F)F)n3n2)cc1OC | 56.1%
CC(=O)Nc1ccc(NC(=O)c2ccc(CSc3ccccc3)o2)cc1 | 151%
Cc1c(Nc2cc(Cl)c3nonc3c2[N+](=O)[O-])c(=O)n(-c2ccccc2)n1C | 0%
